Laboratory results taken from PubChem BioAssay AID2099 (Broad Institute, 2009).
Screen size: about 330,000 compounds; about 230 (0.07%) were called active. Inconclusive results, whose numbers are uncertain, are shown with a selection of clear calls.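 Rule for the calls: active = more than half of a compound's replicate wells show inhibition beyond 50%, single wells judged on their own value; inconclusive = some, but no more than half, of replicates pass 50% inhibition; inactive = no replicate passes 50% inhibition.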

By UniProt entry, the sequences of proteins in these tests, tags left out. Residues count along the entry.
UniProt Q9H3R0, 1-420 limits assumed: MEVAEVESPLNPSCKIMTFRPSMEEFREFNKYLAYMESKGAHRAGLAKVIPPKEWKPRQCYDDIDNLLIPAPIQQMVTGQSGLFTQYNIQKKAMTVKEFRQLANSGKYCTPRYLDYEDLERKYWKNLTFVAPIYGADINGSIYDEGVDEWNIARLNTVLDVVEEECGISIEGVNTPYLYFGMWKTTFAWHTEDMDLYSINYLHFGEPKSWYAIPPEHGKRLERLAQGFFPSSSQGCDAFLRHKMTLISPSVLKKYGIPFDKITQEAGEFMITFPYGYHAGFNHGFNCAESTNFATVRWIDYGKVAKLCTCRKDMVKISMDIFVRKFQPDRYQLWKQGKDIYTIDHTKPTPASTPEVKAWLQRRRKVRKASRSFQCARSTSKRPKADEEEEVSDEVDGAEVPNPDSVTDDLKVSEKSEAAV

Biological target: Lysine-specific demethylase 4C (Homo sapiens) (UniProt Q9H3R0)
Assay: inhibitors of GASC-1 histone demethylase, primary screen, biochemical, fluorescence, DELFIA europium (AID 2099);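 note: signal counts dimethyl H3K9 product captured on neutravidin plate; 0% = median of DMSO wells and 100% = 0.3 times that DMSO median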
Conditions: GST-JMJD2C(1-420) H3K9me3 demethylation, at 2.35 µM, stronger effect = higher value

Compound | inhibition
Cc1ccc(Nc2nc(C(=O)NCC3CCCO3)cs2)cc1 (stereo unspecified) | inconclusive: -54.4%
CCCCNc1ccc(C(=O)OCCN(C)C)cc1 | inconclusive: -27.7%
CCOc1ccc(S(=O)(=O)N2Cc3ccccc3CC2C(=O)NCCCn2ccnc2)cc1 (stereo unspecified) | inconclusive: -51.2%
COCCSc1nnc(NC(=O)C2CCCO2)s1 (stereo unspecified) | inconclusive: -52%
COc1ccc(CN2CCCCC2C)c(C)c1C (stereo unspecified) | active: 50%
CN(C)CCCn1c(SCC(=O)N2c3ccccc3Sc3ccccc32)nc2ccccc2c1=O | inactive: -4.33%
COC(=O)N1CCc2c(sc(NC(=O)C3=COCCO3)c2C#N)C1 | inconclusive: -186%
CCCc1nc2oc3c(NCc4ccccn4)ncnc3c2c2c1COC(C)(C)C2 | inconclusive: -53%
COc1cccc(CNC(=O)CCCc2c[nH]c3ccccc23)c1 | inconclusive: -52.4%
O=C(NCCN1CCOCC1)c1ccccc1N1C(=O)[C@@H]2Cc3c([nH]c4ccccc34)C(c3ccccc3)N2C1=O (stereo partly specified) | inconclusive: -182%
COc1cc(NC(=O)CSc2nnc(Cn3nnc4ccccc43)n2C)cc(OC)c1 | inconclusive: -83.7%
CC(C)Oc1ccc(Br)cc1C(=O)N/N=C/c1c[nH]c2ccccc12 | inconclusive: -75.3%
COc1ccc(/C=N/Nc2cc(=O)n(C)c(=O)n2C)cc1OC | active: 52.3%
Clc1cc2nc[nH]c2cc1Cl | inconclusive: -74.6%
COc1ccc(Nc2nc(C)nc3c2oc2ccccc23)c(OC)c1 | inconclusive: -92.4%
O=C(/C=C/c1ccc(Cl)c([N+](=O)[O-])c1)Nc1cccc(NC(=O)c2ccco2)c1 | inactive: 6.08%
COC(=O)CSc1nc2cc(C)ccc2cc1C#N | inconclusive: -145%
Cc1ccc(C(=O)O/N=C(\N)Cc2cccs2)cc1[N+](=O)[O-] | inconclusive: -61%
CC(C)=NOc1nc(NC(=O)NS(=O)(=O)c2ccccc2Cl)nc(N(C)C)n1 | inactive: -22.3%
O=C(NCCS(=O)(=O)NCc1ccc(Cl)cc1)c1ccccc1 | inconclusive: -142%
CCCn1c(-c2cccs2)nc2c1c(=O)[nH]c(=O)n2Cc1ccccc1 | inconclusive: -52%
C=CCOc1cccc(C2/C(=C(/O)c3ccc4c(c3)CC(C)O4)C(=O)C(=O)N2CCN2CCOCC2)c1 (stereo unspecified) | inconclusive: -55.5%

Compound | inhibition
COCCCNC(=O)CN(C1CCCCC1)S(=O)(=O)c1ccc(C)cc1 | inconclusive: -154%
COC(=O)[C@]1(CC(C)C)N[C@H](c2ccc(-c3ccc(Cl)c(Cl)c3)cc2)[C@@H]2C(=O)N(C)C(=O)[C@@H]21 | inconclusive: -62.7%
CCOc1ccc(CCNC(=O)c2cccc(N3CCCC3=O)c2)cc1OCC | inconclusive: -59.7%
Cc1ccccc1N1OC2C(=O)N(c3ccc(F)cc3)C(=O)C2C1c1ccccn1 (stereo unspecified) | inconclusive: -207%
CCOC(=O)C1CCCN(S(=O)(=O)c2cc3c4c(c2)CCC(=O)N4CCC3)C1 (stereo unspecified) | inconclusive: -55%
Nc1cc(=O)[nH]c(SCC(=O)NNC(=O)c2ccccc2)n1 | inconclusive: -58.2%
O=C1N=C(N2CCCCC2)S/C1=C/C1=Cc2ccccc2OC1 | inactive: -13.6%
Cc1ccc2c(c1)N(CC(=O)OCC(=O)NCc1ccccc1)C(=O)CO2 | inconclusive: -51.3%
CN(C)C(CNC(=O)C1CCCN(C(=O)c2ccc(Cl)cc2)C1)c1ccco1 (stereo unspecified) | inactive: 14.4%
Cc1ccc(NC(=O)C(C)SCc2nc3sc4c(c3c(=O)[nH]2)CCCC4)nc1 (stereo unspecified) | inconclusive: -64.3%
CC(=O)c1cccc(NC(=O)c2ccc(NS(=O)(=O)c3c(C)noc3C)cc2)c1 | inconclusive: -50.8%
CN(CC(=O)Nc1ccc(Cl)c(C(F)(F)F)c1)C(=O)c1ccc(N2CCOCC2)c([N+](=O)[O-])c1 | inconclusive: -63.1%
COc1ccc(S(=O)(=O)NCc2ccncc2)cc1NC(=O)c1ccccc1 | inconclusive: -174%
CCc1oc2ccccc2c1C(=O)c1cc(Br)c(O)c(Br)c1 | inconclusive: -91.5%
COc1ccc(OC)c(NC(=O)CSc2nnnn2-c2ccc3c(c2)OCO3)c1 | inactive: -5.89%
COc1ccc(CN2C(=NC(=O)C3CC3)SC3CS(=O)(=O)CC32)cc1 (stereo unspecified) | inconclusive: -94.6%
CN1C(=O)C(C)(C)N(C(=O)c2cccc([N+](=O)[O-])c2)c2ccccc21 | inactive: 96%
CCOC(=O)C1=C(O)C(=O)N(Cc2ccccc2)C1 | inconclusive: -96.4%
CCN1C(=O)[C@H]2[C@@H](c3ccc(-c4ccc(Cl)c(Cl)c4)cc3)N[C@@](C)(C(=O)OC)[C@H]2C1=O | inconclusive: -116%
COc1ccc(C(=O)COC(=O)Cn2[nH]c(=O)c3ccccc3c2=O)c(OC)c1 | inactive: 0.0798%
CCCCCOC(=O)C1=C(C)Nc2ncnn2C1c1cccs1 (stereo unspecified) | inconclusive: -64.7%
CC1(O)C(=O)C=C2C=C(C3CC3)OC=C2C1=O (stereo unspecified) | inactive: -21.5%

Compound | inhibition
O=C(Nc1ccc(S(=O)(=O)C(F)F)cc1)c1ccc2c(=O)n3c(nc2c1)CCC3 | inactive: 8.36%
COCCCn1c(SCC(=O)OC2CCCCC2)nnc1-c1ccco1 | inconclusive: -218%
N#C/C(=C\c1cc2c(cc1Br)OCO2)c1ccc(C(=O)O)cc1 | inactive: -10.5%
CCOC(=O)c1nn(-c2ccccc2F)c(C)c1C(C)=O | inconclusive: -57.8%
O=C(Nc1ccc(Cl)cc1)C1CC2CCCC(C1)C2=O (stereo unspecified) | inconclusive: -51.6%
Cc1ncsc1CCOC(=O)c1cccnc1 | inconclusive: -187%
CC1C(=O)N2CCCc3cc(NC(=O)C4CCCCC4)cc1c32 (stereo unspecified) | inconclusive: -104%
COc1ccc(/C=N/OCC(=O)N(Cc2ccccc2)c2ccccc2C(=O)O)cc1 | inconclusive: -63.5%
CCN(c1ccccc1)S(=O)(=O)c1ccc(Cl)c(NC(=O)CSc2nncs2)c1 | inconclusive: -54.2%
O=C(NCc1ccccn1)c1cn(Cc2ccccc2)nn1 | active: 64.1%
O=C(Nc1ccc(-c2csc(Nc3ccc(Cl)cc3)n2)cc1)c1cccc(C(F)(F)F)c1 | inconclusive: -205%
O=C(Nc1cccc(-n2cnnn2)c1)c1cc(Cl)nc(Cl)c1 | inconclusive: -135%
COc1cccc(C2=NOC(C(=O)Nc3c(C)n(C)n(-c4ccccc4)c3=O)C2)c1 (stereo unspecified) | inactive: 0.0722%
Cc1ccccc1Sc1c(C#N)c(-c2ccccc2)nn1C | inconclusive: -58.7%
Cc1ccc(CC(=O)Nc2cccc(S(=O)(=O)N3CCOCC3)c2)cc1 | inconclusive: -57.6%
Cc1cc(C)n2c(SCc3cccs3)nnc2n1 | inconclusive: -94.9%
Cc1ccc(S(=O)(=O)Nc2ccccc2CNC2CCCCC2)cc1 | inactive: 0.445%
COc1ccccc1CNC(=O)c1cc(-c2ccccc2)nn1CC1CC(c2cccnc2)=NO1 (stereo unspecified) | active: 57.3%
CC1=CC(C)C(C(=O)O)C(C(=O)Nc2cccnc2)C1 (stereo unspecified) | inconclusive: -57.8%
CN(C)c1ccc(/C=C(/C#N)C(=O)NCc2ccccc2)o1 | inactive: 14.3%
COCCN(CCOC)Cc1c(C)[nH]c2ccccc2c1=O | inconclusive: -89.1%
COc1ccc(NC(=O)C2CCCCN2N)cc1OCC(C)C (stereo unspecified) | active: 80.4%

Compound | inhibition
O=c1[nH]c(C(F)(F)F)nc2c1nnn2Cc1ccccc1F | inactive: -0.781%
O=c1cc2oc3cc(O)c(O)cc3c(-c3ccccc3[N+](=O)[O-])c-2cc1O | active: 57.3%
Cc1ccc2sc(N(CCCN(C)C)C(=O)c3ccc(S(=O)(=O)N(C)Cc4ccccc4)cc3)nc2c1C | inconclusive: -124%
Cc1cccc(N2C(=O)C3C4C=CC(C4)C3C2=O)c1 (stereo unspecified) | active: 53.6%
CNC(=S)NNC(=O)c1oc2nc(-c3ccccc3)cc(C)c2c1N | inactive: 7.94%
O=[N+]([O-])c1ccc(N/N=C/c2ccc(O)c(O)c2O)c(S(=O)(=O)N2CCOCC2)c1 | inactive: 14.2%
C#CCOCCOCCOCCNc1nc(N2CCN(C(=O)[C@H](CCC(=O)O)n3cc(C(N)CC(C)C)nn3)CC2)nc(N2CCN(C(=O)[C@H](Cc3ccc(O)cc3)n3cc(C(N)[C@H](C)CC)nn3)CC2)n1 (stereo partly specified) | inconclusive: -53.2%
CCC(C(=O)NC1CCCC1)N(C(=O)Cn1nnc(-c2ccc(C)o2)n1)c1cnc2ccccc2c1 (stereo unspecified) | inconclusive: -73.5%
COc1cccc(C2C(C#N)=C(C)NC3=C2C(=O)CC(C)(C)C3)c1 (stereo unspecified) | inconclusive: -92.8%
COc1ccc2[nH]cc(CCNC(=O)C3CCCO3)c2c1 (stereo unspecified) | inactive: 20.2%
Cc1cc(C)nc(NC(=O)c2cccc(Br)c2)n1 | inconclusive: -62.8%
O=C(COC(=O)c1ccccn1)Nc1cccc(Cl)c1Cl | inconclusive: -93.7%
Cc1ccc(OCCn2cc(C=O)c3ccccc32)cc1 | inconclusive: -58.5%
COC(=O)[C@@H](NC(=O)Nc1ccc(S(N)(=O)=O)cc1)C(C)C | inactive: 1.76%
O=C(COC(=O)CNC(=O)c1ccccc1F)Nc1ncc(Cl)cc1Cl | inactive: 19.9%
CC1Cc2cc(/C(O)=C3/C(=O)C(=O)N(CCCN4CCOCC4)C3c3ccc(C(C)C)cc3)ccc2O1 (stereo unspecified) | inconclusive: -91.1%
Cc1cc(C)n2nc(C(=O)NCc3ccccc3)cc2n1 | inconclusive: -39.4%
COc1ccc(OCCC(=O)OCC(=O)Nc2cccc(S(=O)(=O)N3CCOCC3)c2)cc1 | inactive: -10%
Cc1ccnc(SCC(=O)c2ccc(Br)s2)n1 | inactive: -1.74%
O=[N+]([O-])c1ccc(O)c2ncccc12 | inconclusive: -50.7%

A draw from above in order of number of heavy atoms, low to high.
Compound | inhibition
Cc1cc(C)n2c(SCc3cccs3)nnc2n1 | inconclusive: -94.9%
COC(=O)N1CCc2c(sc(NC(=O)C3=COCCO3)c2C#N)C1 | inconclusive: -186%
CN1C(=O)C(C)(C)N(C(=O)c2cccc([N+](=O)[O-])c2)c2ccccc21 | inactive: 96%
COCCCn1c(SCC(=O)OC2CCCCC2)nnc1-c1ccco1 | inconclusive: -218%
COc1cccc(C2=NOC(C(=O)Nc3c(C)n(C)n(-c4ccccc4)c3=O)C2)c1 (stereo unspecified) | inactive: 0.0722%
COc1ccc(/C=N/OCC(=O)N(Cc2ccccc2)c2ccccc2C(=O)O)cc1 | inconclusive: -63.5%
COC(=O)[C@]1(CC(C)C)N[C@H](c2ccc(-c3ccc(Cl)c(Cl)c3)cc2)[C@@H]2C(=O)N(C)C(=O)[C@@H]21 | inconclusive: -62.7%
